# Results published in PubChem BioAssay AID504467 (National Center for Advancing Translational Sciences (NCATS), 2011).
# The campaign covered roughly 330,000 compounds. About 7,700 (2.3%) were called active. The shares of active, inactive and inconclusive entries below differ from those in the screen. Calls follow the shape of the dose curve; as a rule, active = well fitted inhibition curve with a large enough effect; inconclusive = small, poorly fitted or top-dose-only effect, or effect the other way; inactive = flat fitted curve, though single readings scatter. Where the call is inconclusive, the potency comes from a doubtful curve fit.
# Test: qHTS screen for small molecules that inhibit ELG1-dependent DNA repair in human embryonic kidney (HEK293T) cells expressing luciferase-tagged ELG1; also: nearly all actives have a fitted effect of over 55% in size
# Conditions: HEK293T ELG1-luciferase reporter, luminescence, 16 h, DNA damage induced by 5-fluorouridine; activity change, negative = inhibition: at 46.1 µM (top of the series)
# How it was run: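 HEK293T cells expressing luciferase-tagged ELG1 (2,000/well) received 5-Fluorouridine plus compound or DMSO for 16 hr at 37 °C. Luciferase was read by ONE-Glo luminescence after 30 min at room temperature.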
# % is scaled to controls: 0 for no effect and ±100 for the full control effect; potency is read from the fitted curve at half-maximal effect.
SMILES,Potency,"activity change, negative = inhibition"
COc1ccc2nc(NC(=O)c3sc4nc(C)cc(C)c4c3N)sc2c1,"inconclusive: 0.13 µM [activator, full curve]",–
Cc1cccc(-n2c3nc(=O)[nH]c(=O)c-3cc3cc([N+](=O)[O-])ccc32)c1,–,inactive: -23.1%
Cc1ccc(-c2nc3ccccc3[nH]2)cc1NC(=S)NC(=O)c1ccccc1Br,"inconclusive: 16.4 µM [inhibitor, single point]",–
CC(C)Cn1c(N)c(C(=O)COC(=O)c2ccc(Cl)cc2)c(=O)n(C)c1=O,active: 18.3 µM,–
CCOC(=O)c1nc2sc3c(c2c(=O)n1C(C)C(=O)OCC)CCCC3 (centres undefined),"inconclusive: 20.6 µM [inhibitor, single point]",–
CCc1cccc2c(SC(C)C(=O)NCC3CCCO3)nc(-c3ccccc3)nc12 (centres undefined),–,inactive: -1.09%
COc1ccc2c(c1)C(=O)CC(c1ccccc1F)O2 (centres undefined),"inconclusive: 23.1 µM [activator, partial curve]",–
O=C1/C(=C/c2ccco2)SC(=S)N1CC1CCCO1 (centres undefined),–,inactive: -10.4%
O=C(NCC(=O)N1CCN(c2ccccc2)CC1)c1cccs1,"inconclusive: 23.1 µM [activator, partial curve, poor fit]",–
Cc1ccc(Oc2c(F)c(F)nc(N3CCCC3)c2F)cc1,"inconclusive: 20.6 µM [activator, single point]",–
Cc1cc(C)nc(Nc2n[nH]c(COc3cccc4ccccc34)n2)n1,–,inactive: -4.06%
COC(=O)c1ccc2c(=O)n(NC(=O)C(c3ccccc3)c3ccccc3)c(=S)[nH]c2c1,active: 25.9 µM,–
Nc1nc(Br)c2ccccc2c1-c1ccccc1,"inconclusive: 29.1 µM [inhibitor, single point]",–
O=C(/C=C/c1ccc([N+](=O)[O-])cc1)NCc1ccccn1,–,inactive: -2.22%
CCOC(=O)/C(N)=C/c1ncc(C(F)(F)F)cc1Cl,"inconclusive: 5.17 µM [activator, partial curve, poor fit]",–
COc1ccc(N2C(=O)CC(N3CCN(c4ccc(C(=O)c5cccnc5)cc4)CC3)C2=O)cc1 (centres undefined),"inconclusive: 7.94 µM [inhibitor, partial curve, poor fit]",–
CCOC(=O)c1c(C)nc2sc3c(=O)[nH]cnc3c2c1-c1ccc(OC)cc1,active: 20.6 µM,–
CN(C)S(=O)(=O)c1ccc(S(=O)(=O)N(CC(=O)Nc2ccccc2)Cc2ccco2)cc1,"inconclusive: 15.8 µM [activator, single point]",–
CCOc1ccc(CCNC(=O)CCS(=O)(=O)c2ccc(Cl)cc2)cc1OCC,–,inactive: 0.317%
COc1ccccc1/C=N/NC(=S)NCc1ccco1,–,inactive: 0.0849%
CNC(=O)c1c(Cl)cnn1-c1ccc(C)cc1,"inconclusive: 18.3 µM [activator, partial curve]",–
CCOc1ccc2nc(NC(=O)CSc3ccccc3)sc2c1,–,inactive: 5.69%
Cc1cccc(CSc2nc3c(cc2C#N)CCC3)c1,"inconclusive: 14.6 µM [activator, partial curve]",–
Cc1ccc(NC(=O)Nc2cccs2)nc1,"inconclusive: 14.6 µM [activator, partial curve]",–
CCN1CCN(/C=N/c2nc3c(s2)CCCC3)CC1,"inconclusive: 0.326 µM [activator, full curve]",–

# Part of the list above in another layout:
SMILES | Potency | activity change, negative = inhibition
Cc1cc(C)nc(Nc2n[nH]c(COc3cccc4ccccc34)n2)n1 | – | inactive: -4.06%
COC(=O)c1ccc2c(=O)n(NC(=O)C(c3ccccc3)c3ccccc3)c(=S)[nH]c2c1 | active: 25.9 µM | –

# More records

SMILES,Potency,"activity change, negative = inhibition"
CCN(CC)C(=O)CSc1ncccc1-c1nc2ccccc2[nH]1,"inconclusive: 16.4 µM [activator, single point]",–
COC(=O)N/N=C/c1ccccc1,"inconclusive: 20.6 µM [activator, single point]",–
Cc1ccnc(N/N=C/c2ccccc2)n1,"inconclusive: 3.66 µM [activator, full curve]",–
CN(C)CCn1c2c(c(SCC(=O)NCc3ccccc3)nc1=O)CCC2,–,inactive: 13.9%
O=C(Nc1nc2ccccc2[nH]1)NC1CCCCC1,"inconclusive: 2.91 µM [activator, partial curve]",–
O=C(CSc1ccccc1)Nc1ccc2c(c1)C(=O)NC2=O,–,inactive: 14.6%
Cc1ccc(-c2c[n+](Cc3ccc(Cl)c(Cl)c3)c3n2CCC3)cc1,active: 20.6 µM,–
O=c1oc2cc(O)ccc2c2ccccc12,"inconclusive: 29.1 µM [activator, single point]",–
CC(C)n1c(N2CCN(C(=O)Nc3ccc(F)cc3F)CC2)nc2ccccc21,"inconclusive: 14.6 µM [inhibitor, partial curve, poor fit]",–
Cc1cccc(Sc2c([N+](=O)[O-])ncn2C)n1,"inconclusive: 0.651 µM [activator, partial curve, poor fit]",–
N#C/C(=C\c1ccccc1O)C(=O)Nc1ccccn1,–,inactive: 0.84%
COc1ccc(N2CN=C3SCC(=O)N3C2)cc1,"inconclusive: 20.6 µM [activator, partial curve, poor fit]",–
CCN(CC)C(=O)C(=O)Nc1ccc(F)c(Cl)c1,"inconclusive: 18.3 µM [activator, partial curve]",–
CC(C)(C)c1ccc(OCCNC(=S)NC(=O)c2cccnc2)cc1,–,inactive: 6.31%
Oc1[nH]c2ccccc2c1N=Nc1nncc2ccccc12,"inconclusive: 1.83 µM [activator, full curve]",–
CC(CCN1CCN=C1Nc1ccccc1)c1ccccc1 (centres undefined),–,inactive: 0.57%
Cc1ccccc1C(=O)Nc1cc(-c2cc(C(C)(C)C)oc2C)nn1C,"inconclusive: 16.4 µM [inhibitor, single point]",–
CN(C)c1ccc(N2C(=NC(=O)COc3ccccc3)SC3CS(=O)(=O)CC32)cc1 (centres undefined),"inconclusive: 25.9 µM [activator, partial curve, poor fit]",–
CC1(c2ccc3c(c2)OCCCO3)NC(=O)N(CC(=O)NCCc2ccccc2)C1=O (centres undefined),–,inactive: 0.349%
CCC(=O)Nc1nnc(SCC(=O)c2ccc3c(c2)Cc2ccccc2-3)s1,–,inactive: 33.5%
COCCCNC(=S)NNC(=S)Nc1ccccc1,"inconclusive: 9.2 µM [activator, partial curve, poor fit]",–
O=C(Nc1cccc(Cl)c1N1CCOCC1)c1cccnc1,–,inactive: -3.8%
Cn1c(SCC(=O)N2CCCCCC2)nc2c(c1=O)SCC2,–,inactive: 8.2%
O=C(c1ccco1)N1CCN(Cc2csc(-c3ccccc3Cl)n2)CC1,"inconclusive: 23.1 µM [activator, single point]",–
